Data as given in PubChem BioAssay AID743266 (National Center for Advancing Translational Sciences (NCATS), 2014).
The whole screen tested about 410,000 compounds, of which about 310 (0.076%) were called active. Inconclusive means that the source gave no clear call. Such entries were picked first, then a sample of the others. The call rests on the fitted dose curve; in most records, active means well fitted activation curve with a large enough effect; inconclusive means small, poorly fitted or top-dose-only effect, or another doubt; inactive means no such curve, though single readings can be large or run the other way. Potencies beside an inconclusive call are fits to weak or partial responses and may not hold up.

The chains behind the UniProt entries cited, without tags or fusion partners. Where a name states a change or a piece, a line headed by the entry shows the natural chain unless it says otherwise.
UniProt Q03431: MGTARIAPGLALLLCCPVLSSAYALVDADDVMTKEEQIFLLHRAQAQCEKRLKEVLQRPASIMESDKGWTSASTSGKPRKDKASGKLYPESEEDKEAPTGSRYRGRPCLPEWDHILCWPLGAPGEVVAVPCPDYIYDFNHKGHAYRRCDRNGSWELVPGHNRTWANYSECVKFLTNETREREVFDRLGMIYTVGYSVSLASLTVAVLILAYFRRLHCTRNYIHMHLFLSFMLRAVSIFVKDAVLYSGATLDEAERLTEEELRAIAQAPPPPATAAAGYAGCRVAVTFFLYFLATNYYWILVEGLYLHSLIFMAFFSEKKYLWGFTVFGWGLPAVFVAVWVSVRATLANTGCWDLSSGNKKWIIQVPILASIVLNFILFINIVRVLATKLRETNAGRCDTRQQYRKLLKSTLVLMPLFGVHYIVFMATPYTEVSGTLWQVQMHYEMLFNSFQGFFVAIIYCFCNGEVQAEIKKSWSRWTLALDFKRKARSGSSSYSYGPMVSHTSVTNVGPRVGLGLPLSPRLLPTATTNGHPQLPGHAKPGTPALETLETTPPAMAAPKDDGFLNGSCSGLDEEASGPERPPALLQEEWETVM

Target: Parathyroid hormone/parathyroid hormone-related peptide receptor (Homo sapiens) (UniProt Q03431)
Test: qHTS for PTHR1 Agonists: Primary Screen; further: nearly all actives have a fitted effect of over 55% in size
Conditions: HEK293 GP2 PTHR1 cells, GloSensor cAMP luminescence, 1 h; activation: at 115 µM (top of the series) unless noted; series mostly up to 115 µM
In short: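 HEK-293-derived GP2 cells expressing PTHR1 and a GloSensor cAMP reporter, 3,000/well, plated overnight, given luciferin plus IBMX (each 0.5 mM as added) for 1 h at 37 °C, then compound for 1 h at 37 °C. Luminescence was read after 15 min at room temperature.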
Potency means the concentration at half of the fitted maximal effect.

Potency, inconclusive:
Cc1ccc(Cn2c(=O)c3ccccc3n3c(CCC(=O)NCCN4CCOCC4)nnc23)cc1 50.1 µM [activator, partial curve, poor fit]
COc1ccc(-c2csc(C(C#N)=C(O)CSc3nccn3C)n2)cc1OC 25.1 µM [activator, partial curve, poor fit]
O=C(COc1ccc([N+](=O)[O-])cc1)NNC(=O)Nc1ccc([N+](=O)[O-])cc1 44.7 µM [activator, partial curve, poor fit]
Cc1ccc(NC(=O)Nn2cnnc2)cc1 56.2 µM [activator, partial curve, poor fit]
CCOC(=O)Cc1csc(NC(=O)CSc2nnc(-n3nc(C)cc3C)c3ccccc23)n1 35.5 µM [activator, single point]
O=C(NNC(=O)C1CCC(C(=O)NNC(=O)c2cccs2)CC1)c1cccs1 (configuration not stated) 5.01 µM [activator, full curve, poor fit]
CCC(C)C(CO)NC(=O)/C=C/[C@H]1O[C@@H](n2cnc3c(NC(=O)c4ccccc4)ncnc32)[C@H](O)[C@@H]1O (some centres not stated) 56.2 µM [activator, partial curve, poor fit]
CC(=O)NC12CC3CC(CC(CC(=O)O)(C3)C1)C2 6.31 µM [activator, full curve, poor fit]
COc1ccc(OCc2ccc(-c3nc(C#N)c(N4CCC(C(N)=O)CC4)o3)o2)cc1 79.4 µM [activator, partial curve, poor fit]
Cc1nnc(N2CCC(C(=O)N3CCCCC3)CC2)c2nn(-c3ccccc3)c(C)c12 126 µM [activator, single point]
O=C(O)c1csc(-c2cccs2)n1 39.8 µM [activator, partial curve, poor fit]
Cc1nn(CC(=O)NC2CCC(C)CC2)c(C)c1[N+](=O)[O-] (configuration not stated) 44.7 µM [activator, single point]
CCOc1nc(NC(=O)NS(=O)(=O)Oc2cccc(Cl)c2)nc(-c2ccccc2)n1 141 µM [activator, single point]
CC(=O)N1CCC(C(=O)Nc2ccccc2)(N(Cc2ccccc2)C(=O)c2cccnc2)CC1 5.01 µM [activator, single point]
CN(C(=O)c1cccc(C(=O)N(C)c2ccccc2)c1)c1ccccc1 25.1 µM [activator, partial curve]
COc1ccc(OC)c(C2NC(=S)NC3=C2N2CCC3CC2)c1 (configuration not stated) 126 µM [activator, single point]
COc1ccc(-c2csc(-c3c(N)c(C(=O)c4ccccc4)n4ccccc34)n2)cc1 89.1 µM [activator, single point]
Cc1ccc(-n2nc3c(N4CCC(C(=O)NCCC(C)C)CC4)nnc(C)c3c2C)cc1 79.4 µM [activator, partial curve, poor fit]

Potency, inactive:
CCCCC[C@@H](C)N1C[C@H](COCc2ccccc2)Oc2cc(N3CC[C@H](O)C3)ccc2S1(=O)=O
COc1ccc(N(CC(=O)Nc2ccc3c(c2)OCO3)S(=O)(=O)c2ccc(C)cc2)cc1OC
CNC1=C(N(C(C)=O)c2ccc(Br)cc2)C(=O)c2ccccc2C1=O
Cc1cccn2c(=S)[nH]nc12
CCc1ccc(NC(=O)c2ccc3c(O)c(S(=O)(=O)c4ccccc4)c(=O)[nH]c3c2)cc1
CCOc1ccccc1OCCN1CCC(Cc2ccccc2)CC1
O=C(O)CCN1C(=O)CC(N2C(=O)/C(=C/c3ccc(Cl)cc3)SC2=S)C1=O (configuration not stated)
COc1ccccc1Nc1nc(N)nc(CN2CCN(c3ccccc3F)CC2)n1
COc1ccc(CN2C(=O)C(CC(=O)NCCCCc3ccccc3)CC(C(=O)N(C(C)C)C(C)C)=C2C)cc1 (configuration not stated)
O=C(c1ccc(CS(=O)(=O)c2ccc(Br)cc2)o1)N1CCN(c2ncccn2)CC1
Cc1nc(S(=O)(=O)N(C)c2ccccc2)c(C#N)c(C)c1Cl
CC(OCC(O)CN(C)Cc1nc2ccccc2c(=O)[nH]1)c1ccc(Cl)cc1 (configuration not stated)
Cc1cc(Cl)ccc1NC(=O)CN1C(=O)CSc2ccc(S(=O)(=O)N3CCOCC3)cc21
CCOc1ccc(-n2c(=O)c3c(C)c(C)sc3n(CC(=O)Nc3ccc(CC)cc3)c2=O)cc1
COCCNCc1nc2sc(C)c(-c3ccccc3)c2c(=O)[nH]1
COc1ccc(-c2nc3ccccc3n2Cc2ccc(C)cc2)cc1
c1ccc(-c2noc(-c3ccco3)n2)nc1
Cc1ccc(S(=O)(=O)N2C3CCCCC3O[C@H]2CC(=O)OCc2ccccc2)cc1 (some centres not stated)
Cc1cccc(C)c1OCC(=O)Nc1ccc(NC(=O)c2ccco2)cc1
COC(=O)c1cc(C)nc2c1c(=O)nc(SCc1c(C)cc(C)cc1C)n2C1CC1
CC12CCC(=O)N1C(C(=O)Nc1nccs1)CS2 (configuration not stated)
CCCCCCSc1ccc(-c2nc3ccc(C)cn3c2NCc2ccccc2)cc1
Nc1ccccc1-c1n[nH]c(=S)s1

3 structures from above, arranged by molar mass, high to low.
Potency, inactive:
COc1ccc(CN2C(=O)C(CC(=O)NCCCCc3ccccc3)CC(C(=O)N(C(C)C)C(C)C)=C2C)cc1 (configuration not stated)
CCOc1ccc(-n2c(=O)c3c(C)c(C)sc3n(CC(=O)Nc3ccc(CC)cc3)c2=O)cc1
Cc1nc(S(=O)(=O)N(C)c2ccccc2)c(C#N)c(C)c1Cl

Following part.

activation, inconclusive:
Nc1cc(=O)[nH]c(SCC(=O)Nc2ccc(N3CCCCC3)cc2)n1 36.9% [activator]
COC(=O)c1cnc(Nc2nc(C(N)c3ccccc3Cl)cs2)nc1C(F)(F)F (configuration not stated) 30.1% [activator]
Cc1ccccc1C(NC(N)=O)c1ccccc1 (configuration not stated) 113% [activator] [at 57.5 µM]
Cc1cc(-n2c(C)cc(C(=O)CSc3nc4ccccc4c(=O)n3Cc3ccco3)c2C)no1 -0.711% [activator] [at 57.5 µM]
Nc1ccc(C(=O)n2c3ccccc3c3ccccc32)cc1 35.4% [activator] [at 57.5 µM]
Cc1nnc(NC(=O)CSc2nnc3ncccn23)s1 -26.1% [activator]
